Structures can show the parent of a compound that is named as a salt.
Test system: canine dermatitis, scratching and licking
Assay: Topical treatment of canine skin irritation (case studies)
Format: in vivo, dog
Conditions: Study 2, oral liquid for one week
From the text: A six-year-old long-haired Dachshund, over eight months, developed an inflamed area on the belly and lower right groin where it frequently licked and scratched. Upon examination, the site was red and swollen (FIG. 9). A visit to the veterinarian ruled out fleas and mites or fungal and bacteria growth. The veterinarian called it a non-specific allergy and recommended cetirizine hydrochloride liquid compounded for dogs. […] The Applicant gave the dog's owner an airless pump dispenser containing 8% wt/vol of FEMA 4557 dispersed in 4 mg/ml of carbapol 980, formulated with 1% ethanol and 1% menthol, and instructed him to apply the gel to the skin of the dog's belly and groin. […] Treatment continued for one week, after which the skin appeared utterly normal. The inflammation and scratching have not come back.
A twelve-year-old West Highland Terrier had periodic episodes of seasonal skin allergy. She would scratch until the site (groin and hindquarters) lost its fur and was bare down to the skin. A visit to the vet concluded that fleas, mites, or pyoderma were not causing the skin irritation, but the condition may be due to fungus. […] The owner of the dog, who had access to a pharmacy, applied nystatin ointment and a potent skin steroid cream containing […]. […]

O=C(O)COCCN1CCN(C(c2ccccc2)c2ccc(Cl)cc2)CC1 (stereo not shown) [cetirizine, cetirizine hydrochloride]
effect on red skin and licking: did not affect the red skin or the licking

From patent US20240269094A1, “Treatment of canine dermatitis and skin irritation” (priority 2023, published 2024)
